Experimental data taken from patent US20060111274A1.
These are yes or no findings as the source states them, for the method shown. Some binding calls cover weakened binding; strength is not graded here.

Tests used:
[1] = biological target: RAF-1 kinase (UniProt P04049); assay: T cells exposed to the peptide; immunoprecipitation studies
[2] = biological target: RAF-1 kinase (UniProt P04049); assay: inferred from displacement of RAF-1 from the V7 immunocomplex in peptide-treated T cells

Question: Which binding [1] does the source give for KLSTLRSNTRRRRRRR here?
Answer: Its binding is “binds”.

Question: What about the binding [2] of the same binder?
Answer: Its binding is “binds”.
